Test results from the supplement of paper PMC10849652.
The list shows a part of the results.

Sequences of proteins named here, by UniProt entry; tags and fusion partners are left off. A change or cut given only in a name is not applied to a line headed by its entry.
UniProt Q9BQY4: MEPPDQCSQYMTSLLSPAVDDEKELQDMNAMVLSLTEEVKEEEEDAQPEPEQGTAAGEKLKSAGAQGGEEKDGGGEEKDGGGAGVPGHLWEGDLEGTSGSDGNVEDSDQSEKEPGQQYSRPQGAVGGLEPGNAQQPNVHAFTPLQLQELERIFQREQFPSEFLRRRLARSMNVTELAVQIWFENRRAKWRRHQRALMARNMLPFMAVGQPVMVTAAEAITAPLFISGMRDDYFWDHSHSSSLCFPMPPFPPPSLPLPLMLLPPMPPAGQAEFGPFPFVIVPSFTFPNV
UniProt Q6NUQ1: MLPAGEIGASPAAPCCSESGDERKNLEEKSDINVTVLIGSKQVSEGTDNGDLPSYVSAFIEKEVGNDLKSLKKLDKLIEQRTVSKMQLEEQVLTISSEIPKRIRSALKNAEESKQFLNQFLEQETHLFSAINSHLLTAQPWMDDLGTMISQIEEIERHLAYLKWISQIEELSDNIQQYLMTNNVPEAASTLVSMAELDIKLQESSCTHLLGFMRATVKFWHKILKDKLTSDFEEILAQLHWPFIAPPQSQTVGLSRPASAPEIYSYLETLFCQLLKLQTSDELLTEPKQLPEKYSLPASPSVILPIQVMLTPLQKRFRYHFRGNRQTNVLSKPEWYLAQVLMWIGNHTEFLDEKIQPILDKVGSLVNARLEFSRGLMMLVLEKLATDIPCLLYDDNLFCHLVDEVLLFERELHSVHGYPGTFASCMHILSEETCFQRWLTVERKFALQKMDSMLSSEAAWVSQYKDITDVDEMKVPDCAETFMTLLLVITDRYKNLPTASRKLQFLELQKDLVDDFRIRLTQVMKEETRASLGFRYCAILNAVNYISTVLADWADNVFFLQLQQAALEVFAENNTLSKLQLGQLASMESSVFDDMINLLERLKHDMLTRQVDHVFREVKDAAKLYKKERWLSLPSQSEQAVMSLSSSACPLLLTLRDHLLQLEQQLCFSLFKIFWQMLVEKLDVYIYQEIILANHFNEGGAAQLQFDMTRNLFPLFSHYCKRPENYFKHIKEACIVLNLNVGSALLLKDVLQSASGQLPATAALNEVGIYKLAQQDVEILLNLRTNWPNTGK
UniProt Q9BV68: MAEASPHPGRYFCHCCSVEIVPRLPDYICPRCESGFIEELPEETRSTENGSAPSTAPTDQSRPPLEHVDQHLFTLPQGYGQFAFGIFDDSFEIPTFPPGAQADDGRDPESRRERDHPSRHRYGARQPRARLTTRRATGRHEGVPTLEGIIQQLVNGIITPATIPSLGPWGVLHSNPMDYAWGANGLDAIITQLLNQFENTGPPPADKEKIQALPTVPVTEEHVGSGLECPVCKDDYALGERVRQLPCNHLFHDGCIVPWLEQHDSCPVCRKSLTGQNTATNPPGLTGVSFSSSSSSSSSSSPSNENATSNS
UniProt Q5EBL4: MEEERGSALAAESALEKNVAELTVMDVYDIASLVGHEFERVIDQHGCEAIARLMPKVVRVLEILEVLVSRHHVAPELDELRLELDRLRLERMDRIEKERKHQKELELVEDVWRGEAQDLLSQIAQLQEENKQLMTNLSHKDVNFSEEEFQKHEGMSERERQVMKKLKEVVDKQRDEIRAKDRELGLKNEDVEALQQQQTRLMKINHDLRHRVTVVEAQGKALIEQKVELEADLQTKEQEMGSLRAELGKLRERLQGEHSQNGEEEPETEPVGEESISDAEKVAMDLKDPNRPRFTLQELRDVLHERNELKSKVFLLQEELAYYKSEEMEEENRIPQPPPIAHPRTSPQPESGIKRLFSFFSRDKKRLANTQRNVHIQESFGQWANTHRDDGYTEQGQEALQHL
UniProt Q6R327, whole entry, looked up: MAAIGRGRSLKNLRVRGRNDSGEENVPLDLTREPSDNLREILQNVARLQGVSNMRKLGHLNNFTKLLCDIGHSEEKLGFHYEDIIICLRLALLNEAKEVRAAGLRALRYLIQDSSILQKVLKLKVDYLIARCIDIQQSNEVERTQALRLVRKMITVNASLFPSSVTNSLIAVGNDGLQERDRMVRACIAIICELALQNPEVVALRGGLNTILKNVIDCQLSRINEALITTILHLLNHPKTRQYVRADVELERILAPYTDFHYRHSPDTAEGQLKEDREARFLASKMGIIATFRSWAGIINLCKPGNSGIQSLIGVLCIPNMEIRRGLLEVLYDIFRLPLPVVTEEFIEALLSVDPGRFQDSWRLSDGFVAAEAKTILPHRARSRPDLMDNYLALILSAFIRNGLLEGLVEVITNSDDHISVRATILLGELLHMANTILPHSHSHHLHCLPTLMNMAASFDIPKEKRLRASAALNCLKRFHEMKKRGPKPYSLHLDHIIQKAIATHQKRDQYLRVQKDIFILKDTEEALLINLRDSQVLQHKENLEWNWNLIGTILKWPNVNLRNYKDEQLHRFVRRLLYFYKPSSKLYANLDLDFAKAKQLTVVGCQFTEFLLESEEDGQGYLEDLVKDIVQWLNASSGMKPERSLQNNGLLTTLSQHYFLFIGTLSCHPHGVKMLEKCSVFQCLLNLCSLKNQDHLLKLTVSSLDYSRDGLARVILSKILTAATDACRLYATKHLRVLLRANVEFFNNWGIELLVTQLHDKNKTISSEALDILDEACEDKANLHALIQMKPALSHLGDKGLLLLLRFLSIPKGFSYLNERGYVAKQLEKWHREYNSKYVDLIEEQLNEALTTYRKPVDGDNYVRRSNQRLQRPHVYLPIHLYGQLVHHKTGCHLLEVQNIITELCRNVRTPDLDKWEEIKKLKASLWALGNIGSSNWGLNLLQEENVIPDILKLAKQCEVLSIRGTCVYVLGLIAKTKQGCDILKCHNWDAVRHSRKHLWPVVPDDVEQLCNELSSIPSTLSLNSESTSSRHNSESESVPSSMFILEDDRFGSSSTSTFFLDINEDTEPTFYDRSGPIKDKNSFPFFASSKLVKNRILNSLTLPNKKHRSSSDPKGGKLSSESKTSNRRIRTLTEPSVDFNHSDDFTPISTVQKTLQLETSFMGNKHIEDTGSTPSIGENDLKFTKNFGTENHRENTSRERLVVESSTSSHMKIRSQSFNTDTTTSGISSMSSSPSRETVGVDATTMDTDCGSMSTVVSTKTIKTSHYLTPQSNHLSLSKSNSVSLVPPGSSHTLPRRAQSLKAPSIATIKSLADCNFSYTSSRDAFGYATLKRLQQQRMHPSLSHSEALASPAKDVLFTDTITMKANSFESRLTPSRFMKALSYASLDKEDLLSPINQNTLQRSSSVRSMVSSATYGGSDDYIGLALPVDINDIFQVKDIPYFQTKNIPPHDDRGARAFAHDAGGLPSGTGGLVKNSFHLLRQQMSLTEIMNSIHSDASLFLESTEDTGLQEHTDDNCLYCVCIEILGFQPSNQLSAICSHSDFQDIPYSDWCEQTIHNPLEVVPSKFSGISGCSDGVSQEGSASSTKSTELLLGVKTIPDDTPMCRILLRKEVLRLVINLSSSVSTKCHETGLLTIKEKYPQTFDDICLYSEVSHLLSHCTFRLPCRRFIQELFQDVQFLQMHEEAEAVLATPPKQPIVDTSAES
UniProt O14730: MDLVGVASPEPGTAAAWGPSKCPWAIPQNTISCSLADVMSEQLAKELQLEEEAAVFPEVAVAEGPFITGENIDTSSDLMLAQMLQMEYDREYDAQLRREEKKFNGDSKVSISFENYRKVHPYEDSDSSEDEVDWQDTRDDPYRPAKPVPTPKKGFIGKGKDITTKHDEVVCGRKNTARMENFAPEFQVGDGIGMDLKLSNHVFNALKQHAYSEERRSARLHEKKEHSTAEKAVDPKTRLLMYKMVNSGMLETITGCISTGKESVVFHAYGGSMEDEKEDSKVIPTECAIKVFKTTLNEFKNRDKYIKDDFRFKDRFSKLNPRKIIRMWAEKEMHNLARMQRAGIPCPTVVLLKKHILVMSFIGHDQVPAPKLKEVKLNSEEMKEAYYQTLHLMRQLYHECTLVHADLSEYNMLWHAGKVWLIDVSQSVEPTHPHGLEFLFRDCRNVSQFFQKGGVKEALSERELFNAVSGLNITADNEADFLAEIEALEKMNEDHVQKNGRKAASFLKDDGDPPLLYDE
UniProt Q96DM3: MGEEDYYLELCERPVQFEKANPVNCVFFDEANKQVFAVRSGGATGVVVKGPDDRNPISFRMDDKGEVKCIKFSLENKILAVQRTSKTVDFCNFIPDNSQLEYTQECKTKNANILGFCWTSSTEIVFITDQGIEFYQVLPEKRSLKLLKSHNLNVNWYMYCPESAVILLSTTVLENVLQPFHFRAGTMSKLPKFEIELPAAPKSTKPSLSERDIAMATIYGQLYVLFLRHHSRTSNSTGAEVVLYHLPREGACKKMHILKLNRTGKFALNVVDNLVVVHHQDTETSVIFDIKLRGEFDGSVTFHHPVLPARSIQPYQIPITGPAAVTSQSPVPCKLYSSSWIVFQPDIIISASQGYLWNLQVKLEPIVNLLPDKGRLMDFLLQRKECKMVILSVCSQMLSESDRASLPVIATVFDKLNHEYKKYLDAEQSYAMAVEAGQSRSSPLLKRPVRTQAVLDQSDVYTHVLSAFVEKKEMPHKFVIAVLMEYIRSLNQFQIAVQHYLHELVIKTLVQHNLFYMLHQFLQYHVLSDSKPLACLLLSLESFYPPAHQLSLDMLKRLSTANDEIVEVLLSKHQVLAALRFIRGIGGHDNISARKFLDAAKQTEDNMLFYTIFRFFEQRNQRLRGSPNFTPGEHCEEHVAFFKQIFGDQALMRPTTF
UniProt O00584, whole entry, looked up: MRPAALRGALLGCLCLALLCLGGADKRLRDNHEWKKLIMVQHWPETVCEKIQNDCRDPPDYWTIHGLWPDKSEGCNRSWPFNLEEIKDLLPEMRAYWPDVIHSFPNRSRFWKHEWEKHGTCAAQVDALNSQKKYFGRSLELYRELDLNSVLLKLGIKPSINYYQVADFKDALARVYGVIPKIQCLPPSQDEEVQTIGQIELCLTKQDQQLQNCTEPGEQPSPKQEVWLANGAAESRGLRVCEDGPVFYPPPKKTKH
UniProt P52758: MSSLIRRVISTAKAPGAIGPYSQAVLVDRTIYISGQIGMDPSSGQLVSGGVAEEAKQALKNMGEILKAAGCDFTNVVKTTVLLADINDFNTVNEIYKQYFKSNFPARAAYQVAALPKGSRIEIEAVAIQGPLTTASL
UniProt Q01974, whole entry, looked up: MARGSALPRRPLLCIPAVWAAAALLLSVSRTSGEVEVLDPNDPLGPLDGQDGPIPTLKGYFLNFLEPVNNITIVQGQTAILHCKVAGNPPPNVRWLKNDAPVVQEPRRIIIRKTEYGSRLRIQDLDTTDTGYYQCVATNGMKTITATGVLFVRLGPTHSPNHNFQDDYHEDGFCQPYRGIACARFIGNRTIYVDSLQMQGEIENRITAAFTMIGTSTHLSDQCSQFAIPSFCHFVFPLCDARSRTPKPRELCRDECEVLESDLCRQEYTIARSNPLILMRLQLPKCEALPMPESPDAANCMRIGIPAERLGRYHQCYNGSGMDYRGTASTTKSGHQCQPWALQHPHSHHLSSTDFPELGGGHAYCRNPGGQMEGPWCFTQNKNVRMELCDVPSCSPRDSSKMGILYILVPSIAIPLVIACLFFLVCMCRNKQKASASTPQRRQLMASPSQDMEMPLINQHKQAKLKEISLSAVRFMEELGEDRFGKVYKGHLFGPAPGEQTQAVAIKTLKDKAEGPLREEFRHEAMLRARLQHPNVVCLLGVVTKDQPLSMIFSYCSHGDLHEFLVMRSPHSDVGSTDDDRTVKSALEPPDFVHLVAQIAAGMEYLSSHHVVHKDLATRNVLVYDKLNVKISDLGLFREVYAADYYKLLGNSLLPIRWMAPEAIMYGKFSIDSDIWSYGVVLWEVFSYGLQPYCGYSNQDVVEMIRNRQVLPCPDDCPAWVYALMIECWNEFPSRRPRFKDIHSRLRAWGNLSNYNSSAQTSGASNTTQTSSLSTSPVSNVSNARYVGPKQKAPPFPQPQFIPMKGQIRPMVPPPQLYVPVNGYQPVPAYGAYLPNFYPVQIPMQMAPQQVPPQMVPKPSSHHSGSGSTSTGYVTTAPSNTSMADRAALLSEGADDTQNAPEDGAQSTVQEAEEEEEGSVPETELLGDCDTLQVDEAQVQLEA
UniProt Q9H4P4: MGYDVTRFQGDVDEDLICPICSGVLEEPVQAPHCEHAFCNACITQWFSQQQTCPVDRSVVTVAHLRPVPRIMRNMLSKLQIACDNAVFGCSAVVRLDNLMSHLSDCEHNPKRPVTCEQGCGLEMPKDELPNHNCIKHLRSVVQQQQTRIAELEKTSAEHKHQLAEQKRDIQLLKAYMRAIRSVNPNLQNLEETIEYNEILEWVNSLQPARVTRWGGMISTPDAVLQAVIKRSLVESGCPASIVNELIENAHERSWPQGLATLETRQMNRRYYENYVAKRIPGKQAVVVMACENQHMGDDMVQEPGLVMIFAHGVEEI
UniProt Q8WVD3: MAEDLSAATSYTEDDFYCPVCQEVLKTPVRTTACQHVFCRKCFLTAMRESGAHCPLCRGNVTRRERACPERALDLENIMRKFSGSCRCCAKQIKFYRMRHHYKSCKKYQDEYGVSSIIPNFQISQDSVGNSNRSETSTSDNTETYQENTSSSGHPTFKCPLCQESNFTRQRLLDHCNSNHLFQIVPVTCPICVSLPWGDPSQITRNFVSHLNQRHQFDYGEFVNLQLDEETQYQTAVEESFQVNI

Key:
Test in all cases: log2 fold change, soluble protein after heating vs DMSO (PISA); higher = thermal stabilisation; K562 lysate, 10 uM; active = over 0.2 and 3.5 SD of the protein, either way, in both replicates (recomputed)
[1] = compound: NCC(=O)Nc1ccc(-n2nc(C(F)(F)F)cc2-c2ccc3c(ccc4ccccc43)c2)cc1
Method in brief: (§1)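 K562 pellets were dounce-homogenised in PBS pH 7.4 containing 1 mM MgCl2, and the crude extract, at 1 mg/mL protein, was exposed to 10 μM compound for 30 min. Aliquots were heated for 3 min across 48°C-58°C, pooled, brought to 0.5% NP-40 at 4°C and spun at 21,000xg for 90 min, with the supernatant taken as soluble protein. TMTpro 16plex LC-MS/MS with equalised channel sums quantified that protein. Values are log-two fold changes in thermal stability relative to solvent controls, taken from duplicates.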

vorinostat = compound: O=C(CCCCCCC(=O)Nc1ccccc1)NO [vorinostat]
Method in brief: as §1

silmitasertib = compound: O=C(O)c1ccc2c(c1)nc(Nc1cccc(Cl)c1)c1ccncc12 [silmitasertib]
Method in brief: as §1

[2] = compound: O=C1NC(=O)C(c2cnc3ccccn23)=C1c1cn2c3c(cc(F)cc13)CN(C(=O)N1CCCCC1)CC2
Method in brief: as §1

entospletinib = compound: c1cn2cc(-c3ccc4cn[nH]c4c3)nc(Nc3ccc(N4CCOCC4)cc3)c2n1 [entospletinib]
Method in brief: as §1

| Target | log2 fold change [1] | log2 fold change (vorinostat) | log2 fold change (silmitasertib) | log2 fold change [2] | log2 fold change (entospletinib) |
| --- | --- | --- | --- | --- | --- |
| RHOG (UniProt P84095) | inactive: 0 | inactive: 0.092 | inactive: 0.001 | inactive: 0.01 | inactive: 0.015 |
| RNF25 (UniProt Q96BH1) | inactive: 0.025 | inactive: 0.097 | inactive: -0.034 | inactive: -0.02 | inactive: -0.004 |
| RHOXF2 (UniProt Q9BQY4) | inactive: 0.057 | inactive: 0.092 | inactive: 0.008 | inactive: -0.01 | inactive: -0.034 |
| RINT1 (UniProt Q6NUQ1) | inactive: 0.078 | active: -0.321 | inactive: 0.038 | inactive: 0.034 | inactive: -0.089 |
| RNF141 (UniProt Q8WVD5) | inactive: -0.158 | inactive: -0.112 | inactive: -0.047 | inactive: 0.039 | inactive: 0.147 |
| RNF126 (UniProt Q9BV68) | inactive: -0.164 | inactive: 0.064 | inactive: 0.196 | inactive: 0.064 | inactive: -0.047 |
| RNASEL (UniProt Q05823) | inactive: -0.005 | active: -0.298 | inactive: 0.055 | inactive: -0.021 | inactive: -0.023 |
| RNF220 (UniProt Q5VTB9) | inactive: -0.004 | inactive: -0.11 | inactive: 0.031 | inactive: 0.012 | inactive: 0.023 |
| RIOK1 (UniProt Q9BRS2) | inactive: 0.016 | inactive: -0.035 | active: 0.358 | inactive: -0.02 | inactive: 0.029 |
| RILPL1 (UniProt Q5EBL4) | inactive: 0.026 | inactive: 0.073 | inactive: 0.037 | inactive: -0.01 | inactive: 0.038 |
| RPAP2 (UniProt Q8IXW5) | inactive: 0.001 | inactive: -0.073 | inactive: -0.044 | inactive: -0.042 | inactive: 0.006 |
| RICTOR isoform 3 (UniProt Q6R327) | inactive: 0.044 | inactive: -0.277 | inactive: 0.167 | inactive: -0.031 | inactive: -0.046 |
| RNF213, A0A0A0MTC1 | inactive: 0.022 | active: -0.381 | inactive: 0.032 | inactive: 0.007 | inactive: 0.052 |
| RPL22 (UniProt P35268) | inactive: 0.05 | inactive: 0.181 | inactive: 0.005 | inactive: 0.1 | inactive: 0.011 |
| RNPEP (UniProt Q9H4A4) | inactive: -0.01 | inactive: 0.069 | inactive: 0.005 | inactive: -0.018 | inactive: 0.02 |
| RHOC (UniProt P08134) | inactive: -0.046 | inactive: -0.042 | inactive: 0.078 | inactive: -0.007 | inactive: 0.027 |
| RPF2 (UniProt Q9H7B2) | inactive: -0.037 | inactive: -0.017 | inactive: -0.101 | inactive: 0.03 | inactive: -0.022 |
| RNF214 (UniProt Q8ND24) | inactive: 0.016 | inactive: -0.046 | inactive: -0.016 | inactive: 0.005 | inactive: -0.034 |
| RIOK3 (UniProt O14730) | inactive: -0.024 | active: -0.605 | inactive: -0.017 | inactive: -0.024 | inactive: -0.004 |
| RMC1 (UniProt Q96DM3) | inactive: 0.008 | active: -0.391 | inactive: 0.017 | inactive: -0.013 | inactive: 0.037 |

3 records drawn at random from those above:

| Target | log2 fold change [1] | log2 fold change (vorinostat) | log2 fold change (silmitasertib) | log2 fold change [2] | log2 fold change (entospletinib) |
| --- | --- | --- | --- | --- | --- |
| RPAP2 (UniProt Q8IXW5) | inactive: 0.001 | inactive: -0.073 | inactive: -0.044 | inactive: -0.042 | inactive: 0.006 |
| RNF141 (UniProt Q8WVD5) | inactive: -0.158 | inactive: -0.112 | inactive: -0.047 | inactive: 0.039 | inactive: 0.147 |
| RIOK1 (UniProt Q9BRS2) | inactive: 0.016 | inactive: -0.035 | active: 0.358 | inactive: -0.02 | inactive: 0.029 |

Additional records:

| Target | log2 fold change [1] | log2 fold change (vorinostat) | log2 fold change (silmitasertib) | log2 fold change [2] | log2 fold change (entospletinib) |
| --- | --- | --- | --- | --- | --- |
| RPAP3 (UniProt Q9H6T3) | inactive: 0.021 | inactive: -0.11 | inactive: 0.012 | inactive: -0.019 | inactive: 0.006 |
| RILP (UniProt Q96NA2) | inactive: 0.01 | inactive: 0.093 | inactive: 0.021 | inactive: -0.01 | inactive: -0.017 |
| RPL12 (UniProt P30050) | inactive: 0.022 | inactive: 0.164 | inactive: -0.005 | inactive: 0.014 | inactive: -0.012 |
| RNASET2 (UniProt O00584) | inactive: -0.011 | inactive: 0.111 | inactive: -0.018 | inactive: -0.019 | inactive: 0.015 |
| RPL17 isoform 3 (UniProt P18621) | inactive: -0.016 | inactive: 0.127 | inactive: 0.003 | inactive: 0.017 | inactive: -0.01 |
| RPAP1 (UniProt Q9BWH6) | inactive: 0.006 | active: -0.232 | inactive: 0 | inactive: 0.015 | inactive: -0.025 |
| RPL15 (UniProt P61313) | inactive: -0.02 | inactive: 0.088 | inactive: 0.003 | inactive: -0.015 | inactive: 0.009 |
| RPL23 (UniProt P62829) | inactive: 0.003 | inactive: 0.022 | inactive: -0.005 | inactive: 0.018 | inactive: 0.005 |
| RPL28 (UniProt P46779) | inactive: 0.012 | inactive: 0.033 | inactive: 0.008 | inactive: 0.043 | inactive: 0.007 |
| RPL10A (UniProt P62906) | inactive: 0.015 | inactive: 0.132 | inactive: 0.002 | inactive: 0.034 | inactive: 0.009 |
| RIDA (UniProt P52758) | inactive: -0.094 | inactive: 0.13 | inactive: -0.011 | inactive: -0.057 | inactive: -0.015 |
| RPL10 (UniProt P27635) | inactive: -0.049 | inactive: 0.062 | inactive: 0.013 | inactive: 0.01 | inactive: 0.003 |
| RPL27 (UniProt P61353) | inactive: 0.014 | inactive: 0.129 | inactive: 0.03 | inactive: 0.013 | inactive: 0.009 |
| RIOX2 (UniProt Q8IUF8) | inactive: 0.07 | inactive: -0.053 | inactive: 0.013 | inactive: -0.052 | inactive: -0.009 |
| RHOT1 isoform 3 (UniProt Q8IXI2) | inactive: 0.024 | inactive: -0.057 | inactive: -0.004 | inactive: -0.009 | inactive: -0.029 |
| ROR2 (UniProt Q01974) | inactive: -0.066 | inactive: -0.062 | inactive: 0.03 | inactive: 0.037 | inactive: -0.021 |
| RPL22L1 (UniProt Q6P5R6) |  |  |  |  | inactive: 0.371 |
| RNF41 (UniProt Q9H4P4) |  | inactive: -0.518 | inactive: 0.114 | inactive: -0.079 |  |
| RNF115 (UniProt Q9Y4L5) | inactive: 0.013 |  |  | inactive: 0.056 |  |
| RNF138 (UniProt Q8WVD3) | inactive: 0.045 |  |  | inactive: -0.051 | inactive: 0.008 |
